Results deposited as PubChem BioAssay AID504774 (Drosophila RNAi Screening Center, 2011).
The deposit covers about 23,000 reagents; this is a random part of those with a known target gene and a result. 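Values are quantile-normalised luminescence on an arbitrary scale; higher means more cells surviving MMS.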 A plus sign joins genes that one reagent is predicted to hit. Further read-outs or replicates are left out here.

Test: 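Genes required for cells to withstand methyl methanesulphonate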 (primary screen)
System: Drosophila Kc167 cells
Reagent: long dsRNA against Drosophila genes, about 0.25 µg dsRNA per well
Duration: about 6 days: 3 days knock-down, then 3 days with or without MMS
Challenge: methyl methanesulphonate 0.004% (w/v) for 3 days after knock-down
Measured: 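ATP-dependent luminescence as a measure of live cells in MMS-exposed wells, quantile normalised within each plate, with replicate values also given as a mean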
Scale: mean viability with MMS: higher = more surviving cells after MMS

mean viability with MMS, by target gene and reagent
obst-H (obstructor-H): DRSC10935 3.50e6; DRSC10940 3.47e6
Ude (Uracil-DNA degrading factor): DRSC15324 3.65e6
dod (dodo): DRSC20577 3.69e6
stj (straightjacket): DRSC06124 3.62e6
ncd (non-claret disjunctional): DRSC17012 3.36e6
Ugt302K1 (UDP-glycosyltransferase family 302 member K1): DRSC16086 3.55e6
Obp83cd (Odorant-binding protein 83cd): DRSC12267 3.51e6
CG8568: DRSC20113 3.75e6
Rpt4R (Regulatory particle triple-A ATPase 4-related): DRSC10791 3.70e6
m-cup (mann-cup): DRSC14430 3.62e6
CG9263: DRSC03176 3.74e6
Ir7e (Ionotropic receptor 7e): DRSC18011 1.65e6
CG3061: DRSC15460 3.52e6
homer: DRSC03547 3.50e6
CG13847: DRSC14697 2.96e6; DRSC23172 3.50e6
Hrs (Hepatocyte growth factor regulated tyrosine kinase substrate): DRSC00549 3.44e6
S-Lap8 (Sperm-Leucylaminopeptidase 8): DRSC06870 3.53e6; DRSC21372 3.57e6
Cpr62Ba (Cuticular protein 62Ba): DRSC08403 3.63e6
Rad60: DRSC15580 3.53e6
CG8478: DRSC16427 3.59e6
CG11695: DRSC19416 3.48e6
CG33340: DRSC14615 3.45e6
Glt (Glutactin): DRSC03333 3.42e6
ValRS (Valyl-tRNA synthetase): DRSC06864 3.06e6
CG30492 (retired record) + M7BP: DRSC05053 3.55e6; DRSC05054 3.60e6; DRSC05055 3.71e6; DRSC06701 3.55e6; DRSC06816 3.54e6
